Earlier results as cited in patent US20170100353A1, “COMPOSITIONS AND METHODS THAT TARGET OLFACTORY RECEPTORS FOR REGULATION OF BREATHING” (The Board of Trustees of the Leland Stanford Junio, priority 2015, published 2017).
At least one structure is not confirmed: it was looked up by name or label, or the drawing left a doubt.

Tests used:
OR51E2 = target: T1, OR51E2 (Homo sapiens, UniProt Q9H255); details: study looking at Olfr78 and OR51E2; cited from earlier work
T1 construct: host or cells: HEK293T
T1 sequence (Q9H255 1-320): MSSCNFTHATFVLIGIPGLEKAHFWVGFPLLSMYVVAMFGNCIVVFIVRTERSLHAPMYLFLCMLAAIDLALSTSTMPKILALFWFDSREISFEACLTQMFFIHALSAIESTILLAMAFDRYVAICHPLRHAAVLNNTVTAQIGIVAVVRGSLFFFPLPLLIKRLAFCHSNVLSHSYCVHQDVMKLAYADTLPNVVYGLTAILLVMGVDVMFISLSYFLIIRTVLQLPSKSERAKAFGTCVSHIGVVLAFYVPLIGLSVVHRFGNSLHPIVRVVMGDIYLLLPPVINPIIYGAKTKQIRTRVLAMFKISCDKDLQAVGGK

Olfr78 = target: T2, Olfr78 (Mus musculus, UniProt Q8VBV9); details: study looking at Olfr78 and OR51E2; cited from earlier work
T2 construct: host or cells: HEK293T
T2 sequence (Q8VBV9 1-320): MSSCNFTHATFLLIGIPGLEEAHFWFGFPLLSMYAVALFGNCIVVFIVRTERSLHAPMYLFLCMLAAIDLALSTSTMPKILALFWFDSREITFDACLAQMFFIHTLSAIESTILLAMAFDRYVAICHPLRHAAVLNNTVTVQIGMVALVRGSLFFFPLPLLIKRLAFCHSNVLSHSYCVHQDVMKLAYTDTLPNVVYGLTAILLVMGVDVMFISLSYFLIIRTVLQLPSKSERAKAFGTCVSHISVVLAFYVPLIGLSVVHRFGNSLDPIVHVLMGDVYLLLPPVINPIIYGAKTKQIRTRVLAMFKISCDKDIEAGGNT

CCCC(=O)O [butyrate]
Agonist activity at OR51E2 (OR51E2): not
Agonist activity at Olfr78 (Olfr78): not
